One assay addresses eGFP_Δ117NPMwt (human) (UniProt P06748). The assay is described as follows: co-IP; GFP-Trap_A beads on lysates of HEK-293T cells transfected with one eGFP-tagged construct; lysis in 10 mM Tris/Cl pH 7.5, 150 mM NaCl, 0.5 mM EDTA, 0.5% NP-40; 1 h at 4 °C; co-precipitated endogenous proteins detected by immunoblotting. In general terms: Immunoblotting shows a protein as a band on a membrane.

Sequences of proteins named here, by UniProt entry; tags and fusion partners are left off. A change or cut given only in a name is not applied to a line headed by its entry. Residues count along the entry.
UniProt P06748: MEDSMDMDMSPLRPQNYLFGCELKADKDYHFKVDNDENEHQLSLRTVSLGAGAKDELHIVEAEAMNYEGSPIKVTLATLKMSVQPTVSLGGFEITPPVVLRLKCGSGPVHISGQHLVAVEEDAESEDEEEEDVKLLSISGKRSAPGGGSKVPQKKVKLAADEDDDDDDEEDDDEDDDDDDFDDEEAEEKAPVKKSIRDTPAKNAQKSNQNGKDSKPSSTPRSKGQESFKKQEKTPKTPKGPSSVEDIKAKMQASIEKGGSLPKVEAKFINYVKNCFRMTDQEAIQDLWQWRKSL
eGFP_Δ117NPMwt: residues 118-294 of P06748
UniProt Q13177: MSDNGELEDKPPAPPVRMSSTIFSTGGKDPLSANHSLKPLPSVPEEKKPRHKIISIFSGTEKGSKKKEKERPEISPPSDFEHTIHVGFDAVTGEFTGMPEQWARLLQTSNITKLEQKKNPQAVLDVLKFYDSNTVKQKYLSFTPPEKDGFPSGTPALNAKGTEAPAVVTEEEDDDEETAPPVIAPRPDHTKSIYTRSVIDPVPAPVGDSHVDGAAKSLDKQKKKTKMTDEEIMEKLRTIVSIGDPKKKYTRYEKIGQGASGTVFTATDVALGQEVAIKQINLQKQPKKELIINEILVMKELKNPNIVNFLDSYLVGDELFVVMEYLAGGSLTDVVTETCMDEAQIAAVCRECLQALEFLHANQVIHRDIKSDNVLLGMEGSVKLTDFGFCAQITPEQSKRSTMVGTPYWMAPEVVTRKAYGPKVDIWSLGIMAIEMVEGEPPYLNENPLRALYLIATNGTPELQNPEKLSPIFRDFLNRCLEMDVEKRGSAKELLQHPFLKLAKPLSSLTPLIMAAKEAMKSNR

A further assay deals with PAK2_eGFP (UniProt Q13177). The description is as above.

Results are given in words; binding and its absence hold for the method and conditions named. In cells and extracts the contact can be indirect. Some binding calls cover weakened binding; strength is not graded here.

“endogenous NPM (HEK-293T) (from UniProt P06748 1-294)”: the figures for the binding entry with eGFP_Δ117NPMwt (human) and with PAK2_eGFP were “binds” and “no binding”, respectively.

Values taken from article PMC8269334.
